Data from patent US7288256B1, “T cell epitopes of the major allergens from dermatophagoides (house dust mite)” (Merck Patent GmbH, priority 1991, dated 2007).
Entries after “also recorded” stand apart in the source; their conditions may differ. Not every detail of the peptide structures is certain; ends, links or a residue may be inferred. Some entries repeat one wording, which the source may state once for all of them. Residues, ends and D or L forms follow the SMILES beside them.

Columns and labels:
IgE = IgE reactivity or histamine release of candidate peptides (data not shown); conditions: experiments to date
human IgE = assay: Direct binding ELISA of IgE to mite allergen proteins and peptides (Examples XIII, XV); conditions: plasma from 19 mite-allergic patients and a pool of 18 additional patients; Example XV
Experimental: Corning assay plates (#25882-96) were coated with 5 μg/ml of each coating antigen listed in FIGS. 19, 20 and 21 at […] and incubated overnight at 4° C. The coating antigens were removed and the wells are blocked with 0.5% gelatin in PBS, 300 μl/well for 2 hours at room temperature. […] Louis, Mo.) and 100 μl/well a\was added and incubated overnight at 4° C. (plasma dilutions were tested in duplicate). The second antibody (biotinylated goat anti-Human IgE, 1:1000, Kirkegaard & Perry Laboratories Inc, Gaithersburg, Md.), was added at 100 μl/well for one hour at room temperature. This solution was removed and streptavidin-HRPO, 1:10000, (Southern Biotechnology Associates, Inc., Birmingham, Ala.) was then added at 100 μl/well for one hour at room temperature (all wells are washed three times with PBS-Tween between each incubation step). TMB Membrane Peroxidase Substrate system (Kirkegaard & Perry Laboratories) was freshly miced, and added at […]. The color was allowed to develop for 2-5 minutes. The reaction was stopped by the addition of […] of 1M phosphoric acid. Plates were read on a Microplate IL310 Autoreader (Biotech Instruments, Winooski, Vt.) with a 450 nm filter. The absorbance levels of duplicate wells were averaged. The order of coating antigens listed vertically in these figure legends corresponds in […] from left to right to the coating antigens listed for each histogram.

[1] = tested on: T cell lines primed with purified native Der p II; assay: T cell epitope studies with modified peptides, T cell lines primed with Der p II (Example XIV, FIGS. 32a-b); format: cell-based, human; conditions: 21 patients

| Structure (SMILES) | IgE binding in direct ELISA (human IgE) | IgE reactivity or histamine release (IgE) | T cell response to peptide [1] | T cell response to peptide ([1]; listed as DPII-8) |
| --- | --- | --- | --- | --- |
| CC[C@H](C)[C@H](NC(=O)[C@H](C)NC(=O)[C@H](CS)NC(=O)[C@H](C)NC(=O)[C@H](CC(C)C)NC(=O)[C@@H](NC(=O)CNC(=O)[C@H](CC(=O)O)NC(=O)[C@H](CC(=O)O)NC(=O)CNC(=O)[C@H](CCSC)NC(=O)[C@@H](NC(=O)[C@H](CCCCN)NC(=O)[C@@H](NC(=O)[C@@H](NC(=O)[C@H](CCC(=O)O)NC(=O)[C@H](CCC(=O)O)NC(=O)[C@@H](N)CC(=O)O)[C@@H](C)O)C(C)C)C(C)C)C(C)C)C(=O)N[C@@H](C)C(=O)N[C@H](C(=O)N[C@@H](Cc1c[nH]cn1)C(=O)N[C@@H](C)C(=O)N[C@@H](CCCCN)C(=O)N[C@H](C(=O)N[C@@H](CCCNC(=N)N)C(=O)N[C@@H](CC(=O)O)C(=O)N[C@@H](CCC(=O)O)C(=O)N[C@@H](CCC(=O)O)C(=O)O)[C@@H](C)CC)[C@@H](C)O [DP II-25.15] (H-DEETVKVMGDDGVLACAIATHAKIRDEE-OH; N-terminus and C-terminus assumed) | – | negative | – | – |
| CC[C@H](C)[C@H](NC(=O)[C@H](CCC(=O)O)NC(=O)[C@H](Cc1c[nH]cn1)NC(=O)[C@H](CC(N)=O)NC(=O)[C@H](C)NC(=O)[C@H](CS)NC(=O)[C@H](CC(=O)O)NC(=O)[C@H](CCCCN)NC(=O)[C@@H](NC(=O)[C@H](CC(=O)O)NC(=O)[C@@H](NC(=O)[C@H](CCC(N)=O)NC(=O)[C@@H](N)CC(=O)O)C(C)C)C(C)C)C(=O)N[C@@H](CCCCN)C(=O)N[C@@H](CCCCN)C(=O)N[C@H](C(=O)N[C@@H](CC(C)C)C(=O)N[C@H](C(=O)N1CCC[C@H]1C(=O)NCC(=O)N[C@@H](CS)C(=O)N[C@@H](Cc1c[nH]cn1)C(=O)NCC(=O)N[C@@H](CO)C(=O)N[C@@H](CCC(=O)O)C(=O)O)C(C)C)C(C)C [DP II-20.11] (H-DQVDVKDCANHEIKKVLVPGCHGSE-OH; N-terminus and C-terminus assumed) | No plasma samples contained IgE | – | responded positively; also recorded: positive | – |
| CC[C@H](C)[C@H](NC(=O)[C@H](CCC(=O)O)NC(=O)[C@@H](NC(=O)[C@H](CCCCN)NC(=O)[C@H](C)NC(=O)[C@@H](NC(=O)[C@H](CCCCN)NC(=O)[C@@H](NC(=O)[C@H](CC(N)=O)NC(=O)[C@H](CCC(N)=O)NC(=O)[C@H](CC(N)=O)NC(=O)[C@H](C)NC(=O)[C@H](CCC(=O)O)NC(=O)[C@H](Cc1ccccc1)NC(=O)[C@@H](NC(=O)[C@H](C)NC(=O)[C@H](CCC(=O)O)NC(=O)[C@H](CC(C)C)NC(=O)[C@H](CCC(=O)O)NC(=O)[C@H](CCCCN)NC(=O)[C@@H](N)CC(=O)O)C(C)C)[C@@H](C)O)[C@@H](C)O)[C@@H](C)CC)C(=O)N[C@@H](CCCCN)C(=O)N[C@@H](CCCCN)C(=O)O [DP II-22.22] (H-DKELEAVFEANQNTKTAKIEIKK-OH; N-terminus and C-terminus assumed) | No plasma samples contained IgE | – | responded positively; also recorded: positive | – |
| CC[C@H](C)[C@H](NC(=O)[C@H](CCC(=O)O)NC(=O)[C@H](Cc1c[nH]cn1)NC(=O)[C@H](CC(N)=O)NC(=O)[C@H](C)NC(=O)[C@H](CS)NC(=O)[C@H](CC(=O)O)NC(=O)[C@H](CCCCN)NC(=O)[C@@H](NC(=O)[C@H](CC(=O)O)NC(=O)[C@@H](NC(=O)[C@H](CCC(N)=O)NC(=O)[C@@H](N)CC(=O)O)C(C)C)C(C)C)C(=O)N[C@@H](CCCCN)C(=O)N[C@@H](CCCCN)C(=O)N[C@H](C(=O)N[C@@H](CC(C)C)C(=O)N[C@H](C(=O)N1CCC[C@H]1C(=O)NCC(=O)N[C@@H](CS)C(=O)N[C@@H](Cc1c[nH]cn1)C(=O)NCC(=O)N[C@@H](CO)C(=O)N[C@@H](CCC(=O)O)C(=O)N1CCC[C@H]1C(=O)N[C@@H](CCCCN)C(=O)O)C(C)C)C(C)C [DP II-20.8] (H-DQVDVKDCANHEIKKVLVPGCHGSEPK-OH; N-terminus and C-terminus assumed) | No plasma samples contained IgE | – | responded positively | positive |
| CC[C@H](C)[C@H](NC(=O)[C@H](CCC(=O)O)NC(=O)[C@@H](NC(=O)[C@H](CCCCN)NC(=O)[C@H](C)NC(=O)[C@@H](NC(=O)[C@H](CCCCN)NC(=O)[C@@H](NC(=O)[C@H](CC(N)=O)NC(=O)[C@H](CCC(N)=O)NC(=O)[C@H](CC(N)=O)NC(=O)[C@H](C)NC(=O)[C@H](CCC(=O)O)NC(=O)[C@H](Cc1ccccc1)NC(=O)[C@@H](NC(=O)[C@H](C)NC(=O)[C@H](CCC(=O)O)NC(=O)[C@H](CC(C)C)NC(=O)[C@H](CCC(=O)O)NC(=O)[C@H](CCCCN)NC(=O)[C@@H](N)CC(=O)O)C(C)C)[C@@H](C)O)[C@@H](C)O)[C@@H](C)CC)C(=O)N[C@@H](CCCCN)C(=O)N[C@@H](C)C(=O)N[C@@H](CC(=O)O)C(=O)O [DP II-22.19] (H-DKELEAVFEANQNTKTAKIEIKAD-OH; N-terminus and C-terminus assumed) | No plasma samples contained IgE | – | responded positively; also recorded: positive | – |

More lines, main results first:

| IgE binding in direct ELISA (human IgE) | Structure (SMILES) | IgE reactivity or histamine release (IgE) | T cell response to peptide [1] | T cell response to peptide ([1]; listed as DPII-8) |
| --- | --- | --- | --- | --- |
| No plasma samples contained IgE | CC[C@H](C)[C@H](NC(=O)[C@H](C)NC(=O)[C@H](CS)NC(=O)[C@H](C)NC(=O)[C@H](CC(C)C)NC(=O)[C@@H](NC(=O)CNC(=O)[C@H](CC(=O)O)NC(=O)[C@H](CC(=O)O)NC(=O)CNC(=O)[C@H](CCSC)NC(=O)[C@@H](NC(=O)[C@H](CCCCN)NC(=O)[C@@H](NC(=O)[C@@H](NC(=O)[C@H](CCCCN)NC(=O)[C@@H](N)CC(=O)O)[C@@H](C)O)C(C)C)C(C)C)C(C)C)C(=O)N[C@@H](C)C(=O)N[C@H](C(=O)N[C@@H](Cc1c[nH]cn1)C(=O)N[C@@H](C)C(=O)N[C@@H](CCCCN)C(=O)N[C@H](C(=O)N[C@@H](CCCNC(=N)N)C(=O)N[C@@H](CC(=O)O)C(=O)N[C@@H](CCCCN)C(=O)N[C@@H](CCC(=O)O)C(=O)O)[C@@H](C)CC)[C@@H](C)O [DP II-25.9] (H-DKTVKVMGDDGVLACAIATHAKIRDKE-OH; N-terminus and C-terminus assumed) | – | responded positively; also recorded: positive | – |
| No plasma samples contained IgE | CC[C@H](C)[C@H](NC(=O)[C@H](CCCCN)NC(=O)[C@H](C)NC(=O)[C@@H](NC(=O)[C@H](CCCCN)NC(=O)[C@@H](NC(=O)[C@H](CC(N)=O)NC(=O)[C@H](CCC(N)=O)NC(=O)[C@H](CC(N)=O)NC(=O)[C@H](C)NC(=O)[C@H](CCC(=O)O)NC(=O)[C@H](Cc1ccccc1)NC(=O)[C@@H](NC(=O)[C@H](C)NC(=O)[C@H](CCC(=O)O)NC(=O)[C@H](CC(C)C)NC(=O)[C@H](CCC(=O)O)NC(=O)[C@H](CCCCN)NC(=O)[C@@H](N)CC(=O)O)C(C)C)[C@@H](C)O)[C@@H](C)O)C(=O)N[C@@H](CCC(=O)O)C(=O)N[C@@H](CC(=O)O)C(=O)O [DP II-22.23] (H-DKELEAVFEANQNTKTAKIED-OH; N-terminus and C-terminus assumed) | – | responded positively; also recorded: positive | – |
